In ChEMBL document CHEMBL3045848, “Microwave-assisted solvent-free synthesis of biologically active novel heterocycles from 3-formylchromones” (2011):

Test system: Candida albicans
Assay: Antifungal activity against Candida albicans IOA-109 at 30 ug/disk after 18 to 48 hr
Assay type: functional, organism-based

NYSTATIN
inhibition zone (IZ): 20 mm
